Reference: PubChem BioAssay AID504467 (National Center for Advancing Translational Sciences (NCATS), 2011)
The campaign covered roughly 330,000 compounds. About 7,700 (2.3%) were called active. The shares of active, inactive and inconclusive entries below differ from those in the screen. Calls follow the shape of the dose curve; as a rule, active = well fitted inhibition curve with a large enough effect; inconclusive = small, poorly fitted or top-dose-only effect, or effect the other way; inactive = flat fitted curve, though single readings scatter. Potencies beside an inconclusive call are fits to weak or partial responses and may not hold up.

assay: qHTS screen for small molecules that inhibit ELG1-dependent DNA repair in human embryonic kidney (HEK293T) cells expressing luciferase-tagged ELG1; details: HEK293T ELG1-luciferase reporter, luminescence, 16 h, DNA damage induced by 5-fluorouridine; activity change, negative = inhibition: at 46.1 µM (top of the series); also: nearly all actives have a fitted effect of over 55% in size
How it was run: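 DMSO vehicle served as the neutral condition. Each well held 2,000 cells given 5-fluorouridine plus compound; after 16 hr at 37 °C/5% CO2, ONE-Glo was added and luciferase measured 30 min later.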
% is scaled to controls: 0 for no effect and ±100 for the full control effect; potency is read from the fitted curve at half-maximal effect.

| Compound | Potency | activity change, negative = inhibition |
| --- | --- | --- |
| COC(=O)c1ccc2c(=O)[nH]c(CSc3nc(C)cs3)nc2c1 | inconclusive: 29.1 µM [activator, single point] |  |
| N#C/C(=C\c1ccc(N2CCOCC2)o1)C(=O)Nc1ccc(O)cc1 | inconclusive: 6.51 µM [inhibitor, single point] |  |
| CCC(=O)c1ccc(OCC(=O)OCC(=O)c2c(N)n(C)c(=O)n(C)c2=O)cc1 | inconclusive: 23.1 µM [activator, single point] |  |
| C=CCNC(=S)N/N=C/c1ccc(C(C)(C)C)cc1 | inconclusive: 29.1 µM [inhibitor, single point] |  |
| Cc1cccc(OCc2nc3ccccc3n2C)c1 | inconclusive: 14.6 µM [activator, partial curve] |  |
| CCNC(=S)Nc1cccc(NC(=O)c2ccccc2O)c1 |  | inactive: 0% |
| COC(=O)CC1=NN(c2nc3ccccc3s2)C(=O)/C1=C/N(C)C | inconclusive: 1.3 µM [activator, partial curve, poor fit] |  |
| O=C(OCc1nnc(-c2ccc([N+](=O)[O-])cc2)o1)C1CC(=O)N(CCc2ccccc2)C1 (stereo not given) |  | inactive: 15.7% |
| CC1(C)CC(=O)C(C=NCc2cccnc2)=C(O)C1 | inconclusive: 10.3 µM [activator, partial curve, poor fit] |  |
| CCOc1cc(N(CC)CC)ccc1/C=C(/C#N)c1nc2ccccc2[nH]1 | inconclusive: 29.1 µM [inhibitor, single point] |  |
| N/C(=N\OC(=O)c1cccc2ccccc12)c1ccccn1 | inconclusive: 5.8 µM [activator, full curve] |  |
| CCOc1ccccc1N(CC(=O)Nc1ccc(OC)cc1OC)S(=O)(=O)c1ccccc1 | active: 16.4 µM |  |
| Cn1c(CCN2CCN(c3ccccn3)CC2)nc2cc(NC(=O)COc3ccc(Cl)cc3)ccc21 | active: 9.2 µM |  |
| COc1cc(C2CC(=O)N(CC(=O)NCC3CCCO3)c3ccccc3S2)cc(OC)c1OC (stereo not given) |  | inactive: -7.67% |
| CC(=O)c1ccccc1OCCn1nc(C(=O)O)c2ccccc2c1=O |  | inactive: 16.1% |
| Cc1nc2ccccn2c1C(=O)Nc1ccc2c(c1)OCCO2 | inconclusive: 8.2 µM [activator, partial curve] |  |
| S=C(Nc1ccc(N2CCOCC2)cc1)Nc1ccc2nc(-c3ccco3)c(-c3ccco3)nc2c1 | inconclusive: 25.9 µM [inhibitor, single point] |  |
| Cc1cc(OCC(=O)Nc2ccccc2C)no1 | inconclusive: 29.1 µM [activator, single point] |  |
| COc1ccc(S(=O)(=O)N2CCN(CC(=O)Nc3sccc3C(N)=O)CC2)cc1OC | inconclusive: 18.3 µM [inhibitor, single point] |  |
| CC(C)C(=O)Nc1ccc(NC(=O)c2cc3ccccc3o2)cc1 | inconclusive: 4.47 µM [activator, full curve] |  |
| CCN(C[C@H]1N[C@@](Cc2ccccc2)(C(=O)OC)[C@H]2C(=O)N(Cc3ccccc3)C(=O)[C@@H]12)C(=O)COC |  | inactive: 9.18% |
| Cc1ccc(C(=O)Nc2ccccc2C(=O)NC(Cc2c[nH]c3ccccc23)C(=O)O)cc1 (stereo not given) | inconclusive: 14.6 µM [activator, partial curve, poor fit] |  |
| Cc1ccc(NC(=O)CN2CCOCC2)cc1C | inconclusive: 16.4 µM [activator, partial curve] |  |
| NC(N)=Nc1nc2ccc([N+](=O)[O-])cc2[nH]1 |  | inactive: 0% |

Entries of single compounds, looked up by structure:
`S=C(Nc1ccc(N2CCOCC2)cc1)Nc1ccc2nc(-c3ccco3)c(-c3ccco3)nc2c1` is entered as Potency: inconclusive: 25.9 µM [inhibitor, single point]
`COc1cc(C2CC(=O)N(CC(=O)NCC3CCCO3)c3ccccc3S2)cc(OC)c1OC` (stereo not given) is entered as activity change, negative = inhibition: inactive: -7.67%
`Cc1ccc(NC(=O)CN2CCOCC2)cc1C` is entered as Potency: inconclusive: 16.4 µM [activator, partial curve]
`COc1ccc(S(=O)(=O)N2CCN(CC(=O)Nc3sccc3C(N)=O)CC2)cc1OC` is entered as Potency: inconclusive: 18.3 µM [inhibitor, single point]

Going on with the list:

| Compound | Potency | activity change, negative = inhibition |
| --- | --- | --- |
| Cc1ccc(-c2csc(NC(=O)CN3CCOCC3)n2)cc1 | inconclusive: 18.3 µM [inhibitor, single point] |  |
| Cc1ccc(OCC(=O)N(Cc2ccccc2)C(C)(C)C)c([N+](=O)[O-])n1 |  | inactive: 1.64% |
| O=S(=O)(Nc1ccccc1N1CCOCC1)c1ccccc1C(F)(F)F |  | inactive: -8.8% |
| CC(C)Cc1ccccc1O |  | inactive: 14.1% |
| COc1ccc(C(=O)NC(NC(=S)Nc2ccc(S(N)(=O)=O)cc2)C(Cl)(Cl)Cl)cc1 (stereo not given) | inconclusive: 20.6 µM [inhibitor, single point] |  |
| Cc1cccc[n+]1CCCCCCCCCC[n+]1ccccc1C | inconclusive: 2.06 µM [inhibitor, full curve] |  |
| CCOC(=O)C1CCN(C(=O)c2cc3cc4cc(OC)ccc4nc3o2)CC1 | inconclusive: 5.17 µM [activator, partial curve] |  |
| COC(=O)c1c(NC(=O)COC(=O)C2CCC2)sc(C)c1C |  | inactive: 10.4% |
| COc1ccc(N2CCOCC2)c(NC(=O)c2cc3ccccc3o2)c1 |  | inactive: -28.1% |
| Cc1cc(C(=O)COc2ccc(C#N)cc2)c(C)n1CC1CCCO1 (stereo not given) | inconclusive: 32.6 µM [inhibitor, single point] |  |
| N#CC(c1ccccc1)c1cnccn1 (stereo not given) |  | inactive: 14.1% |
| CNc1ccc(/C=C(\CCC(=O)O)c2nc3ccccc3s2)cc1[N+](=O)[O-] | inconclusive: 16.4 µM [activator, partial curve, poor fit] |  |
| CCC(=O)N(Cc1c(C)nn(-c2ccccc2)c1Cl)c1ccc(Cl)cc1 | inconclusive: 9.2 µM [inhibitor, partial curve, poor fit] |  |
| CCCC(O)(CCC)C(=O)NNc1ccccc1 |  | inactive: -10.6% |
| N=c1c(C(=O)NCc2ccco2)cc2c(=O)n3ccccc3nc2n1Cc1ccccc1 | inconclusive: 16.4 µM [inhibitor, single point] |  |
| C/C(=C\c1ccc(F)cc1)C(=O)c1c(C)cc(C)[nH]c1=O | inconclusive: 10.3 µM [inhibitor, partial curve, poor fit] |  |
| CCC(C)[C@H]1CN=C(N)N1CCc1cc(C(F)(F)F)cc(C(F)(F)F)c1 (stereo not given in full) | inconclusive: 3.66 µM [inhibitor, partial curve] |  |
| CN(Cc1ccc(-n2cccn2)cc1)Cc1nc(-c2cnccn2)no1 |  | inactive: 0.69% |
| O=C(c1ccc(-c2ccc(Cl)cc2)o1)N1CCN(c2ccc([N+](=O)[O-])cc2Cl)CC1 | inconclusive: 29.1 µM [inhibitor, single point] |  |
| O=C1OCCC1Sc1nc2ccccc2c(=O)n1-c1ccc(F)cc1 (stereo not given) |  | inactive: 13.9% |
| CC(=O)NC(c1cccs1)c1cc(F)c2cccnc2c1O (stereo not given) | inconclusive: 14.6 µM [inhibitor, partial curve, poor fit] |  |
| O=C(NCc1ccccc1Cl)c1ccc(S(=O)(=O)Nc2cccc(C(F)(F)F)c2)cc1 | inconclusive: 0.206 µM [inhibitor, partial curve, poor fit] |  |
| N#Cc1c(NCCCO)nc(NCc2ccccc2)c2c1CCN(Cc1ccccc1)C2 | inconclusive: 18.4 µM [inhibitor, partial curve] |  |
| CCCNC(=O)COc1nc2ccccc2nc1N1CCOCC1 |  | inactive: -1.09% |

| Compound | Potency | activity change, negative = inhibition |
| --- | --- | --- |
| O=C(c1ccccn1)C1CCCN(Cc2cn[nH]c2-c2cc3ccccc3o2)C1 (stereo not given) | inconclusive: 20.6 µM [inhibitor, single point] |  |
| CCCCN(Cc1ccco1)S(=O)(=O)c1c[nH]c(C(=O)OC)c1 |  | inactive: 6.72% |
| CC1CCN(c2nc(/C=C/c3ccccc3)nc3ccccc23)CC1 |  | inactive: -14.5% |
| Cc1ccc(C(=O)NC2(C(F)(F)F)NC(=O)N(c3ccc(Cl)cc3)C2=O)cc1 (stereo not given) |  | inactive: 1.45% |
| Cc1noc(C)c1CSCC(=O)N(C)CC(=O)Nc1ccccc1C(F)(F)F |  | inactive: 3.03% |
| CCOC(=O)C1=C(C)Nc2nc(C)nn2C1c1cc(OC)ccc1OC (stereo not given) | inconclusive: 20.6 µM [activator, partial curve, poor fit] |  |
| CC(=O)Nc1ccc(S(=O)(=O)Nc2nc3ccccc3nc2N2CCOCC2)cc1 | inconclusive: 1.16 µM [inhibitor, single point] |  |
| COCCn1c(-c2ccc(Cl)cc2)cnc1SCC(=O)NCCc1ccc(OC)c(OC)c1 | inconclusive: 7.31 µM [inhibitor, partial curve] |  |
| O=C(Cn1nnc(-c2ccccc2F)n1)N1CCCCC1 | inconclusive: 20.6 µM [activator, partial curve] |  |
| NC(=O)c1ccccc1NC(=O)NC1CCCCC1 | inconclusive: 29.1 µM [activator, single point] |  |
| CC(C)(C)OC(=O)C[C@@H]1C/C=C\C[C@@H](CC(=O)N[C@@H](CO)Cc2ccccc2)C(=O)NC[C@@H](c2ccccc2)OC1=O | active: 7.3 µM |  |
| COC(=O)c1[nH]c2cccc(C)c2c1NC(=O)CN1CCN(c2ccccc2OC)CC1 | inconclusive: 23.1 µM [inhibitor, partial curve] |  |
| O=C(CSc1ncccn1)N1CCC(Cc2ccccc2)CC1 | inconclusive: 16.4 µM [inhibitor, partial curve, poor fit] |  |
| Cc1cccnc1NC(=O)C(C)N1C(=O)c2ccccc2C1=O (stereo not given) |  | inactive: 1.08% |
| CN(C)CCCNC(=S)NCc1ccc(Cl)cc1 | inconclusive: 20.6 µM [activator, single point] |  |
| O=C(CSc1ncn(-c2ccccc2)n1)Nc1nc2c(s1)CCCC2 | inconclusive: 20.6 µM [inhibitor, single point] |  |
| COc1ccc2c(c1)[nH]c1c(=O)n(/N=C/c3ccc(OC)c(COc4ccccn4)c3)cnc12 |  | inactive: -8.7% |
| CCOc1ccc(S(=O)(=O)NCc2ccccc2)cc1C(N)=O | inconclusive: 20.6 µM [inhibitor, single point] |  |
| Cc1ccc(-c2sc(C(=O)NN)c(C)c2C#N)cc1 | inconclusive: 29.1 µM [inhibitor, single point] |  |
| O=S(=O)(NCC1CCCO1)c1cnc(Cl)c(Br)c1 (stereo not given) | inconclusive: 18.4 µM [inhibitor, partial curve, poor fit] |  |
| COc1ccc(-c2csc(NC(=O)C3CSC4(C)CCC(=O)N34)n2)cc1 (stereo not given) | inconclusive: 16.4 µM [activator, partial curve, poor fit] |  |
| CCO[C@H]1OC(C(=O)NCc2nc3ccccc3[nH]2)=C[C@@H](C)[C@@H]1CCCO |  | inactive: 0.259% |
